Screen size: about 1,600 compounds; about 20 (1%) were called active.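 How the source made its calls: active means ratio of uncleaved NAD to its breakdown product ADP-ribose above 4, meaning the enzyme was inhibited; inactive means the rest.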 This is one part of the list.
Each compound was assayed against NAD(+) hydrolase SARM1 (Homo sapiens) (UniProt Q6SZW1) (assay: SARM1 TIR NADase inhibitors by HPLC, primary screen, cell lysate, HPLC readout (AID 1508615;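 further: substrate NAD at 5 µM with 60 min at 37 °C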)). Conditions: HEK293T SAM-TIR lysate, at 5 µM, stronger effect = higher value.

Protein sequences, listed by entry. Tags and fused reporters are not part of them. Lines headed by an entry give the natural chain unless they say otherwise; changes in a name come on top.
UniProt Q6SZW1: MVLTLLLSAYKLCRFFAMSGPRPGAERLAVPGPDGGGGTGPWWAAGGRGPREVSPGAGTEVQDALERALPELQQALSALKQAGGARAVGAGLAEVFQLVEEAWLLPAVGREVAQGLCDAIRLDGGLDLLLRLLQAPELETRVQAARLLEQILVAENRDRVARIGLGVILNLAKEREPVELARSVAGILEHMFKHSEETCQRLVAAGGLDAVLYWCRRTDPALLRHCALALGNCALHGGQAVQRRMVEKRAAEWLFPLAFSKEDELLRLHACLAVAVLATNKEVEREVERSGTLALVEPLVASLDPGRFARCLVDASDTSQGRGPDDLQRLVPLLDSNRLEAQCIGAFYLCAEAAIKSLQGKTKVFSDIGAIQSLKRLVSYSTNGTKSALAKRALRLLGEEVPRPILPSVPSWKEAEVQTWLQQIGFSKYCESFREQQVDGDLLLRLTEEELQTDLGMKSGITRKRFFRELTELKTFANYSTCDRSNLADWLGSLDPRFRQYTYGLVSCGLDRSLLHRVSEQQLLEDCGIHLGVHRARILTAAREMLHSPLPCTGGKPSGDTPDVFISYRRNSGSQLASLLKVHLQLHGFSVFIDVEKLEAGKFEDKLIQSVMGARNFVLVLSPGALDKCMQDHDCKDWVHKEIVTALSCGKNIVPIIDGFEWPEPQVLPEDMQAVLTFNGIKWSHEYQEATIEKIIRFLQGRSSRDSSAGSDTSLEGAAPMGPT

NAD/ADPR ratio, active:
CC(=O)c1cc(O)c2ccccc2c1O 10.2

NAD/ADPR ratio, inactive:
O=C(Nc1cccc(-c2ccccc2)c1)N1CCN(C(=O)Nc2cccc(-c3ccccc3)c2)CC1 3
CC(O)(c1ccccc1)C(c1ccccc1)C1CCCCN1 (configuration not stated) 3
CC1(C)N=C(N)NC(=NCCCOc2ccc([N+](=O)[O-])cc2)N1 3
COC(=O)Nc1csc2c1NC(=O)CCCC2 3
CCOC(=O)CSc1nc2nc(Cl)c(Cl)nc2[nH]1 3
Oc1ccc2ccccc2c1N=Nc1nccs1 3
Clc1ccc(Oc2nc3c(Cl)cccc3s2)cc1Cl 3
CCc1ccc(CCN2C(=O)c3ccccc3C2=O)nc1 3
CC(C)C(=O)Nc1cccnc1 3
CC(=O)Nc1ccc(S(=O)(=O)N=S(C)C)cc1 3
NC(=O)c1nnsc1-c1ccc(-c2snnc2C(N)=O)cc1 3
CN(C)c1ccc(C(c2ccc(N(C)C)cc2)c2ccc([N+](=O)[O-])cc2)cc1 3
CC1=NCC(C)c2ccccc21 (configuration not stated) 3
Nc1ccc(SCc2nc3cccc4c3n2CCC4)cc1 3
COc1cccc2nc3cc(C)c(C)cc3nc12 3
COc1cc(C(=O)c2cocc2C(=O)c2ccc3c(c2)OCO3)cc(OC)c1OC 3
COc1cc2oc3cc(C)oc(=O)c3c2cc1OC 3
O=c1cc(-c2ccccc2)nc2cc(-c3ccco3)[nH]n12 3
CC(=O)Nc1ccc(OCCOc2ccc([N+](=O)[O-])cc2)cc1 3
CCN1CCC(Nc2ccnc3cc(Cl)ccc23)CC1 3
CCOC(=O)C1CC(C)=C(C)CC1C(=O)O (configuration not stated) 3
CCC(CO)Nc1nc2ccc(Cl)cc2c2ccccc12 (configuration not stated) 3
NC(N)=NS(=O)(=O)c1ccc(N=C2C(=O)Nc3ccccc32)cc1 3
CCCCC(=O)N(CCC)CCC 3
O=C(Nc1ccsn1)c1ccc(Cl)cc1Cl 3
Cc1cc(=O)n2c3c(c4c(cc13)c(CN(C)C)cc(=O)n4C)OC2 3
Oc1cccc2cnccc12 3
CCOC(=O)/C=C/c1ccc(C(=O)OCC)[nH]1 3
COc1cc(C(O)c2nc3ccccc3s2)cc(OC)c1OC (configuration not stated) 3
O=C1CCCC1C(=O)Nc1ccc2ccccc2c1 (configuration not stated) 3
Cc1c(-c2ccccc2)n(O)[n+]([O-])c1-c1ccccc1 3
CSc1cccc(NC(=O)Nc2ccccc2C(N)=O)c1 3
Clc1nc2nc3n(c2nc1Cl)CCC3 3
CCNc1nn2ccccc2c1/C=C(\C#N)C(=O)OCC 3
COc1ccc(C2CN=NC2C(=O)c2ccccc2)cc1 (configuration not stated) 3
CN(C)CC1C2CCC(C2)C1O (configuration not stated) 3
CN1CCN(C(=O)/C=C/c2ccc([N+](=O)[O-])o2)CC1 3
COC(=O)C1(C)Cc2cc(OC(C)=O)c(OC(C)=O)cc2N1 (configuration not stated) 3
N#C/C(=C\c1cccnc1)c1ccc(Br)cc1 3
COc1cc2c(cc1OC)[N+]([O-])=C(c1ccccc1)C2=O 3
Cn1cnc([N+](=O)[O-])c1Sc1nnc(-c2cccnc2)n1C 3
COc1ccccc1N=NNc1ccccc1OC 3
CC1=C(C#N)C(C)(C)C(C#N)=C(C)N1 3
COC(=O)Cc1[nH]c(Cl)nc1C(N)=O 3
NC(=O)c1ccc2c(c1)S(=O)(=O)c1ccccc1C2=O 3
Cn1ncc2c(=O)[nH]c(N)nc21 3
CCOC(=O)c1cc2c(OC)c(OC)ccc2c2[nH]cc(C#N)c(=O)c12 3
O=C(O)/C=C/C(=O)N1Cc2cc3ccccc3nc2C1 3
Nc1ncnc2c(C3OC(CO)C(O)C3O)c[nH]c12 (configuration not stated) 3
Cn1c(=O)c2[nH]c(CNc3ccc(C(=O)O)cc3)nc2n(C)c1=O 3
O=C(O)c1ccc(O)c(O)c1 3
COc1ccc(C(=O)Oc2ccc[nH]c2=O)cc1 3
CCN(CC)CCNC(=O)C(Cl)=C1C(Cl)=C(Cl)C(Cl)=C1Cl 3
CCCCCCCCCCCCC(NC(C)=O)(C(=O)OCC)C(=O)OCC 3
COc1c(O)ccc2c1CN1CCc3cc4c(cc3C1C2)OCO4 (configuration not stated) 3
Nc1ccc(/C=C/c2ccc3ncccc3c2)cc1 3

Sorted by molecular weight (smallest number first): four of the compounds above.
NAD/ADPR ratio, inactive:
O=C(O)c1ccc(O)c(O)c1 3
COc1cc2c(cc1OC)[N+]([O-])=C(c1ccccc1)C2=O 3
CCNc1nn2ccccc2c1/C=C(\C#N)C(=O)OCC 3
CC1(C)N=C(N)NC(=NCCCOc2ccc([N+](=O)[O-])cc2)N1 3

Source: PubChem BioAssay AID1508615 (Milbrandt Lab, Department of Genetics, Washington …, 2020)
